The structures appear in SMILES notation. Where “and” joins values, the source holds several entries; their conditions need not be identical. Equal entries are not always repeated. The list shows a part of the results. Repeats are few or missing, and single values can be far off.

The subject of this assay is MEPP (mouse ovarian epithelium Trp53/Pten KO). Briefly: cell viability relative to untreated (fraction); higher = less growth inhibition. The conditions noted are these: 5 µM; 3 days.
In turn, `CC(=O)OCC1=C(C(=O)O)N2C(=O)[C@@H](NC(=O)Cc3cccs3)[C@H]2SC1` returned a cell viability of 0.917. With `Cc1cnc(C(=O)O)c[n+]1[O-]` the figure was 1.03; with `C=CCc1ccc(O)c(-c2ccc(O)c(CC=C)c2)c1`, 0.846. Regarding `C[C@@H](O)CC(=O)O`, the cell viability was 0.903 and 1.25. With `C/C(=C/C(=O)O)C(=O)O` the figure was 0.853; with `CCCCc1ccc(O)cc1O`, 0.864; with `O=C(O)[C@H]1CSC(c2nc3ccc(O)cc3s2)=N1`, 0.879 and 1.1.

`CCOc1ccc2ccccc2c1C(=O)N[C@@H]1C(=O)N2[C@@H]1SC(C)(C)[C@@H]2C(=O)O`: the cell viability was determined as 0.927. The figure for `CO/N=C(\C(=O)N[C@@H]1C(=O)N2C(C(=O)O)=C(COC(C)=O)CS[C@H]12)c1csc(N)n1` is 1.01; for `COc1cc(CNC(=O)CCCC/C=C/C(C)C)ccc1O` it is 0.764; for `N[C@@H](CCC(=O)N[C@@H](CS)C(=O)NCC(=O)O)C(=O)O` it is 0.938. Take `C=C[C@](C)(O)CC[C@@H]1[C@@]2(C)CCCC(C)(C)[C@@H]2CC[C@@]1(C)O`: the cell viability stood at 0.852. With `CC[C@]12CCCN3CCc4c(n(c5ccccc45)[C@@](O)(C(=O)OC)C1)[C@@H]32` the figure was 1.32. The figure for `COc1cc(O)cc(OC)c1` is 0.966; for `CO[C@@H]1[C@@H](OC(N)=O)[C@@H](O)[C@H](Oc2ccc3c(O)c(NC(=O)c4ccc(O)c(CC=C(C)C)c4)c(=O)oc3c2C)OC1(C)C` it is 0.855; for `COc1cccc(/C=N/N(C(=O)C(F)(F)F)c2ccc(C)cc2C)c1` it is 0.991. `CC(C)(O)[C@H]1CC[C@@](C)([C@H]2[C@@H](O)C[C@@]3(C)[C@@H]4C[C@H](O[C@@H]5O[C@H](CO)[C@@H](O)[C@H](O)[C@H]5O)[C@H]5C(C)(C)[C@@H](O[C@@H]6OC[C@@H](O)[C@H](O)[C@H]6O)CC[C@@]56C[C@@]46CC[C@]23C)O1` gave a cell viability of 0.99. `COc1cc(C2Oc3c(O)cc([C@H]4Oc5cc(O)cc(O)c5C(=O)[C@@H]4O)cc3C2CO)ccc1O` (stereo not given in full) registered a cell viability of 1.24. With `O=C(O)c1c[nH]c(=O)[nH]c1=O` the figure was 0.989; with `C[C@H]1[C@H](NC(=O)/C(=N\OC(C)(C)C(=O)O)c2csc(N)n2)C(=O)N1S(=O)(=O)O`, 0.98. The figure for `C[C@H](CCC(=O)O)[C@H]1CC[C@H]2[C@@H]3CC[C@@H]4C[C@H](O)CC[C@]4(C)[C@H]3CC[C@]12C` is 0.969; for `CN[C@@H]1[C@@H](O)[C@@H](O[C@@H]2[C@@H](O)[C@H](O[C@H]3O[C@H](CN)[C@@H](O)[C@H](O)[C@H]3O)[C@@H](N)C[C@H]2NC(=O)[C@@H](O)CN)OC[C@]1(C)O` it is 1.01; for `CCc1c2c(nc3ccc(O)cc13)-c1cc3c(c(=O)n1C2)COC(=O)[C@]3(O)CC` it is 0.636. For `C[C@H]1[C@H](C)CC[C@]2(C(=O)O)CC[C@]3(C)C(=CC[C@@H]4[C@@]5(C)C[C@@H](O)[C@H](O)[C@@](C)(CO)[C@@H]5[C@H](O)C[C@]43C)[C@H]12`, the cell viability was determined as 1.01. Compound `NCCOP(=O)(O)O` gave a cell viability of 0.887. With `COc1ccc(-c2coc3cc(O)ccc3c2=O)cc1` the figure was 1.24; with `CC(=O)c1ccccc1O`, 1.08. With `COc1ccc(-c2coc3cc(O[C@@H]4O[C@H](CO)[C@@H](O)[C@H](O)[C@H]4O)ccc3c2=O)cc1` the figure was 1.03; with `OCCc1ccc(O)cc1`, 1.02. The figure for `COc1cc2ccc(=O)oc2c(O[C@@H]2O[C@H](CO)[C@@H](O)[C@H](O)[C@H]2O)c1O` is 1.11; for `N[C@@H](CS)C(=O)O` it is 1.09. In turn, `COc1ccc(/C=C/C(=O)/C=C(O)/C=C/c2ccc(OC)c(OC)c2)cc1OC` showed a cell viability of 0.918.

`CC1=CC(=O)c2ccccc2C1=O` returned a cell viability of 1.03. The figure for `COc1cc(OC)cc(OC)c1` is 1.27; for `CCN1CCN(C(=O)N[C@@H](C(=O)N[C@@H]2C(=O)N3C(C(=O)O)=C(CSc4nnnn4C)CS[C@H]23)c2ccc(O)cc2)C(=O)C1=O` it is 1.15. With `CO[C@@]1(NC(=O)Cc2cccs2)C(=O)N2C(C(=O)O)=C(COC(N)=O)CS[C@@H]21` the figure was 1.07; with `O=c1ccn([C@@H]2O[C@H](CO)[C@@H](O)[C@H]2O)c(=O)[nH]1`, 1.16; with `C[C@H](Cc1cc2c(c(C(N)=O)c1)N(CCCO)CC2)NCCOc1ccccc1OCC(F)(F)F`, 1.21.

With `C[C@H]1[C@H](C)CC[C@]2(C(=O)O[C@@H]3O[C@H](CO[C@@H]4O[C@H](CO)[C@@H](O[C@@H]5O[C@@H](C)[C@H](O)[C@@H](O)[C@H]5O)[C@H](O)[C@H]4O)[C@@H](O)[C@H](O)[C@H]3O)CC[C@]3(C)C(=CC[C@@H]4[C@@]5(C)C[C@@H](O)[C@H](O)[C@@](C)(CO)[C@@H]5[C@H](O)C[C@]43C)[C@H]12`, the cell viability was 1.25. The figure for `N[C@@H](CCCCNC(=O)CCCC[C@@H]1SC[C@@H]2NC(=O)N[C@@H]21)C(=O)O` is 0.821.
